In patent US20260183321A1, “TREATMENT OF CORONAVIRUS INFECTIONS WITH ANTIMICROBIAL PHOSPHOLIPID COMPOSITIONS” (NATIONAL JEWISH HEALTH, priority 2022, published 2026):
Some of these results come from one statement about several compounds together. At least one compound was matched to its structure with a doubt left.

Test system: SARS-CoV-2
Experiment: quantitative plaque assay for SARS-CoV-2 in VeroE6 cells
Type: cell-based
Conditions: 24 hr
Protocol: VeroE6 cells were infected with SARS-CoV-2 at an MOI=0.01 in either the absence of lipids, or presence of POPG, or PI, or POPC, at concentrations of 250 μg/ml-1000 μg/ml (SARS-CoV-2+POPG, SARS-CoV-2+PI) or the control lipid phosphatidylcholine (PC), at various concentrations (250 μg-1000 μg/ml) (SARS-CoV-2+PC). Cells were preincubated with lipids 30 mins before viral inoculation. Culture media was harvested at 24 hr and processed for quantitative plaque assay for SARS-CoV-2 (FIG. 1A) and for viral yield as a function of phospholipid concentration (FIG. 1). The data are shown as mean+/−SE for three independent experiments in log10 scale. is a graph of viral yield as a function of phospholipid concentration.
A sample holder containing 96 wells (3 plates) was provided and was plated with VeroE6 cells (a cell lineage isolated from kidney epithelial cells extracted from an African green monkey) at a concentration of 5×10^4 cells/well in 100 μl of medium. The medium utilized comprised Dulbecco's Modified Eagle Medium (DMEM), 5% fetal bovine serum (FCS), 1% L-glutamine, and 10,000 U/ml penicillin-streptomycin (PS). […]
FIGS. 1A and 1B depicts the results obtained for quantitative plaque assay for SARS-CoV-2 (FIG. 1A) and for % viral yield as a function of phospholipid concentration (FIG. 1B).

phosphatidylinositol [PI]
concentrations at which viral yield decreased significantly in comparison to the control (PC): above 500 g/ml

CCCCCCCC/C=C\CCCCCCCC(=O)O[C@H](COC(=O)CCCCCCCCCCCCCCC)COP(=O)(O)OCC(O)CO (some centres unmarked) [POPG, palmitoyl-oleoyl-phosphatidylglycerol]
concentrations at which viral yield decreased significantly in comparison to the control (PC): above 500 g/ml
